Here are results for 3 molecules from article PMC11975959.

Results are given in words; binding and its absence hold for the method and conditions named. For part of these data: Binding calls can cover weak binding; strength is not graded here. Where a sequence is shown, tags or fusion partners need not be part of it.

Holding throughout (assay): pull-down; GST-BTWC-2 bait proteins bound to GST magnetic beads, co-incubated with His-BTWC-1 proteins; washed, eluted, SDS-PAGE and Western blot with anti-GST and anti-His antibodies; both purified
Background: A western blot detects proteins with antibodies after separation by electrophoresis.

Test [1] deals with GST-BTWC-2B (Blakeslea trispora).
The target in test [2] is GST-BTWC-2D (Blakeslea trispora).
Test [3] deals with GST-BTWC-2C (Blakeslea trispora).
The target in test [4] is GST-BTWC-2A (Blakeslea trispora).

B1: His-BTWC-1B (protein, UniProt A0A6G6CI19 1-732)
chain: MDPFQSFPVQFNPQIYESSNVPPSTNRLFSISGFQAGLMTNTQQINNTPRSISQAPSQRFLPPTSPTMNSQIENGSRYSGMYANTGFDMLSLLSRVVNRPNQQIDLGPVDLSCSFVVVDAKQYDFPIVYVSPSFERLTDYAPHEVIGRNCRFLQAPDGRVAIGSRRKYTDNSTVYHIKTHMVQGKESQSSIINYRKTGQPFVNLLTVIPISWESSDEIDYFVGLQVDLVEQPNSIFQSMKDGTYSVNYRNSAIPPSISSMQMNPEFSGEAVEVWKRPSSPKQMMGSSSTTTSAIPTNTNNNDTMQIGLSIEKETTNNHHPGHRSSDPDPSMDVETLIKEASTDEGKYRRCWHELLLDQSPDFIHVLTIKGIFLYCSDSTQQVLEYDPSELIGKSLKDICHPSDITTVMRELKQSSSDSAEPVNLIYRVRRKNSGYMWIESCGKLRNEDGRGRKYVVLSGRERPVYQLPRNALTVGNRAHDMRTPAETLMPGTEDHEFWGKLSTDGLLLYASWTCANILGSPPSDIVGTSLYHRMRSNRTTDLTRALAEVKEGKIVYLRHALVNNADLEVMVATTFYPDGRVSLEDPPSFVLMQTKVIDDESTLTDDEPVFVSMDPDVKKKGRADISLSTTGSTTSLRSNTERMIDELDITRDANWQYELHQLRISNKKLRDDLAILLQRAKQEGNEEVAHCHSCYRRLPGTSELSEFSMDEPLLCNTCSLRELPNTLATQQS
Consider B1, for which the binding result in test [1], in test [2], in test [3] and in test [4] was “no binding” each time.

B2: His-BTWC-1C (protein, UniProt A0A6G6CHV8 1-670)
chain: MNNSSASYLPNFSDNSYLPYSNEDADFNRIPHNSNTLNELPPNNRPASPTSNALAGVYSNTGFDMIQILSKLIHRPNPQIQLGPIDLSCSFVVSDARGYDCPVVYSSPAFERLTGYKNEEIIGKNCRFLQSPDGQVTCGSRRQHTDNQAVYHLKAQLNLGKEHQASIINYRKGGQPFVNLVTVVPTFGDDGQVDYFVGLQVDLVEQPNSILEKMKDGTYLINYHQPMSVPRTIPQRNNKLLLDSSSVMDEYFRELPTNNYHSNSNTSSTKSQPEHNSVVQNADIIGLLDPSQIDFESLSSLNGNNNEQQLLKEWNKVLLDQSCDFVHVLSLKGVFLYASQASKHMLEYEPKELVGNLLSSICHPSDIIPVMREIKETTTNPEKAINLLFRIRRKDSGYIWIDCRGKLHMDQSKGRKCLVLSGRERSVYSLMSHQITPSLSNTIESDLEYWAKLSLAGLYLYVTPTCKEVVGFTSDSLEQESIYQYAENNAITDITKALEIVKDGGIVRVPHTILNAKGTYVRVLSTFYPGDAIYSSGKPSFALLQVKAIPFDQNQDSLPLGIEPDVKNLNEAEGENIFAELSTFRSTNWQYELHQLQQSNKRLREQLDKYINPNKQRRKKKSKSSDLPKMCAKCQRKDSPEWRKGPNGPKELCNACGLRYAKSLSAQGKK
In the case of B2, the binding result in test [4] is given as “binds”.

B3: His-BTWC-1A (protein, UniProt A0A3G1Z161 1-657)
chain: MSQQYQQQQHPALAYASATPLNIPGLTQPIRNDQQLQEMPTIDLRPMESTPTNISEAPLTGVYSSSGFDMIGVHSRLVNRPNPQINLGPIDMSCSFLVTDARQYDCPIVYCSPTFEHLTGYVATEIVGRNCRFLQAPDGQVTVGSRRTYTDNQAVYHLKAQMLQNKEHQASIINYRKGGQPFVNLITVIPITDDDGIVTFFVGLQVDLVEQPNAILEKMKNGTYMVNYQQMNIPPYIPGKNFNSEPVDDYFREVPSALPTHSSSALVSPPSAQASSEILSLVNCSGENEQQLQQEWNRLLLDQSEDFIHVLSLKGFFLYCSRSSSHLLEHDPEELVGHPLSSICHPSDIVPVMREIKEAASETGKVINLIFRVRRKYSGYMWMECQGKIHIDQSKGRKCLIMAGRERPMYQLFHKEIVDAQDIAQGSEFWTKASLNGLFLHVTSTSEEVVGFSADALEGATLYQYVGDEHMRDITRALELVRDGQIVNLHHTLQNNKGDYVSVLSTFYPGDTSFGKGRPSFTLVQIRAKETNDKTHSMDVIDSSASTTGETDYEENMFAELETVRGTSWQYELHQLQLANRKLKEQLEHYSNPKRKKQKKKSLGLADVPKICAQCQSTDSPEWRKGPNGPKELCNACGLRYAKSLSLKKAENSSVTV
In the case of B3, the binding result in test [1], in test [2], in test [3] and in test [4] was “no binding” throughout.
